In patent US20160002701A1:
These are yes or no findings as the source states them, for the method shown. Some binding calls cover weakened binding; strength is not graded here.

By UniProt entry, the sequences of proteins in these tests, tags left out. Residues count along the entry.
UniProt P35222, residues 2-781: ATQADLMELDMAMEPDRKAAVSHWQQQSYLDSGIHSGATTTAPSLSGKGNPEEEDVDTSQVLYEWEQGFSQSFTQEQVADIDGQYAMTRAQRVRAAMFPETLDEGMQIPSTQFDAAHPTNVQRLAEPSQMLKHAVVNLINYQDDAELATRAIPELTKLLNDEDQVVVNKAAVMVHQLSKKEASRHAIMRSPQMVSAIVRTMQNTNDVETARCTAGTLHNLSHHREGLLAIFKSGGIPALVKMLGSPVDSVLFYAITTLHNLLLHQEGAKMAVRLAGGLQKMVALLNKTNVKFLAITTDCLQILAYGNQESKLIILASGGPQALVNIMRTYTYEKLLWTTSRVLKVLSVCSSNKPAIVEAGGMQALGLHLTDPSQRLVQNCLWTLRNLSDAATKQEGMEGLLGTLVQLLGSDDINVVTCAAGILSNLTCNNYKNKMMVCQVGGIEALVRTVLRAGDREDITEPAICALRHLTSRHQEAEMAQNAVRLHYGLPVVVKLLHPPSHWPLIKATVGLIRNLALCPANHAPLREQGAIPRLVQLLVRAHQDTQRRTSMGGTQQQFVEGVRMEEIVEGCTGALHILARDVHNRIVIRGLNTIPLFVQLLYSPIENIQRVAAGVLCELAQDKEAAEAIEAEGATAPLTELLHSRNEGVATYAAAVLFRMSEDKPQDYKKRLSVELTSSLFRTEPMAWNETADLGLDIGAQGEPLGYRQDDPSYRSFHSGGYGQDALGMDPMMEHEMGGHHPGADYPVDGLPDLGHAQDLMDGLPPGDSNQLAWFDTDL
UniProt P12830, residues 155-882: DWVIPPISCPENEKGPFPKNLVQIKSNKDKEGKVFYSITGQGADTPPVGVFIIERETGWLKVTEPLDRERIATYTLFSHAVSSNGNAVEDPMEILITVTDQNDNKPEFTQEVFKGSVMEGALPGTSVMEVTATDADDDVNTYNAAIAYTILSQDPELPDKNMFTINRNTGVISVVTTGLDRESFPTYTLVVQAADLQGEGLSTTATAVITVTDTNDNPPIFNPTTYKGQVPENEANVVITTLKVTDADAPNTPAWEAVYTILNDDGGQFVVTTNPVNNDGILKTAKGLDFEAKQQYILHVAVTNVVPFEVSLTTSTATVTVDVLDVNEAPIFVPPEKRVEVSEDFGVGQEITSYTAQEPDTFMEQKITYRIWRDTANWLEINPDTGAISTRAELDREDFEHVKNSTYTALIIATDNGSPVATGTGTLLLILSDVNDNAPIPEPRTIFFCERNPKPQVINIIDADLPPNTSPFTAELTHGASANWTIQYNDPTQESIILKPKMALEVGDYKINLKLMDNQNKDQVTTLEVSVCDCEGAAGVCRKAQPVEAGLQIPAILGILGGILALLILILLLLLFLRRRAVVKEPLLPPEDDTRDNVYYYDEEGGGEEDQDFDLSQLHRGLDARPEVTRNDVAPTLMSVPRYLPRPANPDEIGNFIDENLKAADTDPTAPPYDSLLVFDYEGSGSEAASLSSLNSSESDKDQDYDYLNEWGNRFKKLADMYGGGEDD

Columns and labels:
[1] = target: β-catenin (UniProt P35222); test: in situ biotin ligase proximity assay with TSA benzofurazan deposition
[2] = target: β-catenin (UniProt P35222); test: in situ biotin ligase proximity assay with hapten labeled anti-antibody bridge, tonsil sample
[3] = target: β-catenin (UniProt P35222); test: in situ biotin ligase proximity assays, three schemes

Measured: binding

E-cadherin (from UniProt P12830 155-882)
binds: [1] | [2] | [3]
